The results in this text go back to US20260232827A1 (Zymeworks BC Inc., priority 2023, published 2026).

A short description of this series: general procedure: solution-phase peptide synthesis; HATU. The following applies: for conjugation yield: conjugation step.

On to “2-((2-(((S)-1-((2-(((S)-4-ethyl-8-fluoro-4-hydroxy-3,14-dioxo-3,4,12,14-tetrahydro-1H-pyrano[3′,4′:6,7]indolizino[1,2-b]quinolin-9-yl)amino)-2-oxoethyl)amino)-1-oxo-3-phenylpropan-2-yl)amino)-2-oxoethyl)amino)-2-oxoethan-1-aminium”, for which, for the setting “coupling step”, the step yield was determined as 88% yield.
Substance “(9H-fluoren-9-yl)methyl ((7S)-1-((3-azabicyclo[3.1.1]heptan-6-yl)oxy)-7-benzyl-3,6,9,12-tetraoxo-2,5,8,11-tetraazatridecan-13-yl)carbamate” displayed a step yield (late stage modification step) of 46% yield.
On the same count and under the same terms, the same measure for “(9H-fluoren-9-yl)methyl (S)-(9-benzyl-1-(3-fluoroazetidin-3-yl)-5,8,11,14-tetraoxo-2-oxa-4,7,10,13-tetraazapentadecan-15-yl)carbamate”: 54% yield.
With “(9H-fluoren-9-yl)methyl (S)-(12-benzyl-1-(4-nitrophenoxy)-1,8,11,14,17-pentaoxo-2,5-dioxa-7,10,13,16-tetraazaoctadecan-18-yl)carbamate”, the step yield (late stage modification step, from Compound 4.6) was 53% yield from Compound 4.6%.
The substance “(S)-2-(1-(2,5-dioxo-2,5-dihydro-1H-pyrrol-1-yl)-12,15-dioxo-3,6,9-trioxa-13,16-diazaoctadecan-18-amido)-N-(1-((S)-4-ethyl-8-fluoro-4-hydroxy-9-methyl-3,14-dioxo-3,4,12,14-tetrahydro-1H-pyrano[3′,4′:6,7]indolizino[1,2-b]quinolin-11-yl)-3,10-dioxo-7-oxa-2,4,9-triazaundecan-11-yl)-3-phenylpropana” came in with a conjugation yield of 26% yield.
In turn, “(S)-2-(1-(2,5-dioxo-2,5-dihydro-1H-pyrrol-1-yl)-12,15-dioxo-3,6,9-trioxa-13,16-diazaoctadecan-18-amido)-N-(2-((4-(4-(((S)-4-ethyl-8-fluoro-4-hydroxy-9-methyl-3,14-dioxo-3,4,12,14-tetrahydro-1H-pyrano[3′,4′:6,7]indolizino[1,2-b]quinolin-11-yl)methyl)piperazin-1-yl)phenyl)amino)-2-oxoethyl)-3-ph” displayed a conjugation yield of 20% yield.
In the case of “(S)-16-amino-10-benzyl-6,9,12,15-tetraoxo-3-oxa-5,8,11,14-tetraazahexadecyl (((S)-4-ethyl-8-fluoro-4-hydroxy-9-methyl-3,14-dioxo-3,4,12,14-tetrahydro-1H-pyrano[3′,4′:6,7]indolizino[1,2-b]quinolin-11-yl)methyl)carbamate”, the conjugation yield (TFA salt) came to 39% yield.
“tert-butyl (2-((2-(((S)-1-((2-((4-(4-(((S)-4-ethyl-8-fluoro-4-hydroxy-9-methyl-3,14-dioxo-3,4,12,14-tetrahydro-1H-pyrano[3′,4′:6,7]indolizino[1,2-b]quinolin-11-yl)methyl)piperazin-1-yl)phenyl)amino)-2-oxoethyl)amino)-1-oxo-3-phenylpropan-2-yl)amino)-2-oxoethyl)amino)-2-oxoethyl)carbamate” yielded a conjugation yield of 62% yield.
On the same count and under the same terms, the same measure for “tert-butyl (2-((2-(((S)-1-((2-((4-((4-(((S)-4-ethyl-8-fluoro-4-hydroxy-9-methyl-3,14-dioxo-3,4,12,14-tetrahydro-1H-pyrano[3′,4′:6,7]indolizino[1,2-b]quinolin-11-yl)methyl)piperazin-1-yl)sulfonyl)phenyl)amino)-2-oxoethyl)amino)-1-oxo-3-phenylpropan-2-yl)amino)-2-oxoethyl)amino)-2-oxoethyl)carbam”: 42% yield; for “tert-butyl (2-((2-(((S)-1-((2-(((S)-4-ethyl-8-fluoro-4-hydroxy-3,14-dioxo-3,4,12,14-tetrahydro-1H-pyrano[3′,4′:6,7]indolizino[1,2-b]quinolin-9-yl)amino)-2-oxoethyl)amino)-1-oxo-3-phenylpropan-2-yl)amino)-2-oxoethyl)amino)-2-oxoethyl)carbamate”: 17% yield.
As to “tert-butyl (((S)-9-(2-((S)-2-(2-(2-aminoacetamido)acetamido)-3-phenylpropanamido)acetamido)-4-ethyl-8-fluoro-4-hydroxy-3,14-dioxo-3,4,12,14-tetrahydro-1H-pyrano[3′,4′:6,7]indolizino[1,2-b]quinolin-11-yl)methyl)carbamate”, the step yield (coupling step, TFA salt) turned out to be 64% yield.
